PubChem BioAssay AID720505 – Drosophila RNAi Screening Center | 2013

Assay: 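Fly regulators or components of the CRAC channel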 (primary screen)
System: Drosophila S2R+ cells
Reagent: long dsRNA against Drosophila genes
Challenge: thapsigargin (2 µM) in calcium-free buffer to empty internal stores, then 2 mM calcium added back
Detection: 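Stores emptied by 2 µM thapsigargin without calcium, then 2 mM calcium re-added; fluo-4 fluorescence followed by FLIPR in 384-well plates, per-well averaged endpoint, raw; two screen passes, some wells retested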
Direction: calcium signal and retest calcium signal: higher = more calcium entry after store depletion
Call rule: 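Knock-downs counted as hits when calcium entry dropped relative to STIM1 positive and Rho1 negative controls present on each plate; roughly 1500 genes called, with reductions of differing size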
Meaning of the calls: active = called as lowering calcium entry; inactive = not called
In all, the deposit lists about 20,000 reagents; shown is an unselected part of those that have a named target and a result. In the full data, about 2,100 (10%) got an active call. 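Raw plate signals without normalisation; calls rest on control-based scores that were not deposited; replicate 2 separates called from uncalled poorly.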 A plus sign joins genes that one reagent is predicted to hit. Not stated in the record: the amount of reagent, the time to read-out.

| target | DRSC id | calcium signal, replicate 1 | calcium signal, replicate 2 | retest calcium signal, replicate 1 | retest calcium signal, replicate 2 | activity call |
| --- | --- | --- | --- | --- | --- | --- |
| Or43b (Odorant receptor 43b) | DRSC07486 | 105 | 128 | – | – | inactive |
| Eglp2 (Entomoglyceroporin 2) | DRSC04294 | 150 | 93.6 | – | – | inactive |
| CG6106 | DRSC19971 | 110 | 115 | – | – | inactive |
| CG7272 | DRSC10795 | 123 | 151 | – | – | inactive |
| IFT43 (Intraflagellar transport 43) | DRSC02892 | 70.3 | 154 | – | – | inactive |
| Hr38 (Hormone receptor-like in 38) | DRSC03345 | 203 | 121 | – | – | inactive |
| Hr38 (Hormone receptor-like in 38) | DRSC23230 | 125 | 156 | – | – | inactive |
| CG18518 | DRSC01509 | 206 | 123 | – | – | inactive |
| CG32163 | DRSC09442 | 7911 | 112 | – | – | inactive |
| CG32163 | DRSC21888 | 83.1 | 149 | – | – | inactive |
| pinta | DRSC14698 | 146 | 198 | – | – | inactive |
| yellow-c + CIAPIN1 | DRSC01898 | 118 | 110 | – | – | inactive |
| Pvf1 (PDGF- and VEGF-related factor 1) | DRSC20024 | 152 | 113 | – | – | inactive |
| CG17147 | DRSC10249 | 64.5 | 121 | – | – | active |
| CG18731 | DRSC15377 | 216 | 190 | – | – | inactive |
| FASN2 (Fatty acid synthase 2) | DRSC00167 | 81.1 | 185 | – | – | inactive |
| FASN2 (Fatty acid synthase 2) | DRSC00610 | 139 | 169 | – | – | inactive |
| CG18467 | DRSC06758 | 215 | 190 | – | – | inactive |
| CCT4 (Chaperonin containing TCP1 subunit 4) | DRSC02865 | 122 | 143 | – | – | inactive |
| Sgs3 (Salivary gland secretion 3) | DRSC11280 | 118 | 101 | – | – | inactive |
| CR18217 (pseudo) | DRSC21506 | 183 | 107 | – | – | inactive |
| CG6236 | DRSC15999 | 116 | 107 | – | – | inactive |
| Cpr49Ad (Cuticular protein 49Ad) | DRSC07284 | 101 | 169 | – | – | inactive |
| CR43105 (pseudo) | DRSC05547 | 126 | 125 | – | – | inactive |
| nab | DRSC08455 | 99.5 | 98.4 | – | – | inactive |
| nab | DRSC08456 | 85.8 | 84.3 | – | – | inactive |
| Wnk (Wnk kinase) | DRSC11813 | 113 | 193 | – | – | inactive |
| TrpRS (Tryptophanyl-tRNA synthetase) | DRSC14097 | 109 | 93.9 | – | – | inactive |
| Snx21 (Sorting nexin 21) | DRSC00564 | 73.7 | 157 | – | – | inactive |
| Coq5 (Coenzyme Q5) | DRSC19849 | 68.9 | 107 | 6791 | 86.4 | active |
| Coq5 (Coenzyme Q5) | DRSC21371 | 134 | 142 | – | – | inactive |
| Mcm2 (Minichromosome maintenance 2) | DRSC16734 | 79.4 | 166 | – | – | inactive |
| fd3F (forkhead domain 3F) | DRSC17843 | 114 | 77.4 | – | – | inactive |
| fd3F (forkhead domain 3F) | DRSC23032 | 147 | 183 | – | – | inactive |
| CG9067 | DRSC07328 | 104 | 160 | – | – | inactive |
| CG3124 | DRSC04339 | 96.4 | 153 | – | – | inactive |
| CG3124 | DRSC23062 | 107 | 176 | – | – | inactive |
| CG6567 + CG42394 | DRSC22241 | 81.5 | 222 | – | – | inactive |
| GPHR (Golgi pH Regulator) | DRSC07075 | 121 | 135 | – | – | inactive |
| CG7702 | DRSC16293 | 96.2 | 160 | – | – | inactive |
| CG6893 | DRSC10742 | 85.5 | 161 | – | – | inactive |
| HemK2 + Snapin | DRSC00736 | 84.5 | 286 | – | – | inactive |
| HemK2 + Snapin | DRSC00737 | 206 | 105 | – | – | inactive |
| Mur11Da (Mucin related 11Da) | DRSC18960 | – | – | – | – | active |
| MED14 (Mediator complex subunit 14) | DRSC08235 | 57 | 38.3 | – | – | active |
| CG4022 | DRSC10395 | 65.7 | 95 | – | – | inactive |
| CG7194 | DRSC10784 | 60.9 | 64.9 | – | – | inactive |
| CG17159 + CG17162 | DRSC20899 | 74.9 | 159 | – | – | active |
| CG17159 + CG17162 | DRSC20900 | 62.4 | 181 | – | – | active |
| PlexA (Plexin A) | DRSC17220 | 133 | 123 | – | – | inactive |
| CG15144 | DRSC02445 | 128 | 110 | – | – | inactive |
| Acp32CD (Accessory gland protein 32CD) | DRSC01858 | 185 | 173 | – | – | inactive |
| Hr96 (Hormone receptor-like in 96) | DRSC16707 | 181 | 296 | – | – | inactive |
| Parp1 (Poly-(ADP-ribose) polymerase 1) | DRSC07725 | 113 | 91.5 | – | – | inactive |
| Parp1 (Poly-(ADP-ribose) polymerase 1) | DRSC07778 | 88.6 | 159 | – | – | inactive |
| Parp1 (Poly-(ADP-ribose) polymerase 1) | DRSC07780 | 74.4 | 144 | – | – | inactive |
| CG9068 | DRSC07329 | 122 | 135 | – | – | inactive |
| CG10333 | DRSC02036 | 101 | 105 | – | – | inactive |
| CG4734 | DRSC06885 | 114 | 188 | – | – | inactive |
| CG4734 | DRSC22072 | 106 | 276 | – | – | inactive |
| CG42471 | DRSC01210 | 122 | 154 | – | – | active |
| Him (Holes in muscle) | DRSC19638 | 97.1 | 137 | – | – | inactive |
| CG13871 | DRSC06430 | 192 | 162 | – | – | inactive |
| Qtzl (Quetzalcoatl) | DRSC01221 | 211 | 84.6 | – | – | inactive |
| CG14118 | DRSC10122 | 60.5 | 72.5 | – | – | active |
| Lpt (Lost PHDs of trr) | DRSC04291 | 153 | 207 | – | – | inactive |
| Lpt (Lost PHDs of trr) | DRSC04515 | 141 | 92.1 | – | – | inactive |
| His-Psi:CR31616 + His-Psi:CR31615 | DRSC03760 | 64.6 | 5590 | – | – | active |
| Sp7 (Serine protease 7) | DRSC15461 | 135 | 148 | – | – | inactive |
| PGRP-LA (Peptidoglycan recognition protein LA) | DRSC10327 | 103 | 107 | – | – | inactive |
| PGRP-LA (Peptidoglycan recognition protein LA) | DRSC10414 | 81.6 | 88.8 | – | – | inactive |
| CG14257 | DRSC14752 | 162 | 156 | – | – | inactive |
| Oct-TyrR (Octopamine-Tyramine receptor) | DRSC11883 | 103 | 124 | – | – | inactive |
| Dlip1 (Dorsal interacting protein 1) | DRSC18460 | 66.4 | 114 | – | – | inactive |
| CG14069 | DRSC02372 | 169 | 112 | – | – | inactive |
| CG12863 | DRSC06203 | 145 | 178 | – | – | inactive |
| PDCD-5 (Programmed Cell Death 5) | DRSC09955 | 92.9 | 221 | – | – | inactive |
| Mrm2 (Mitochondrial rRNA methyltransferase 2) | DRSC14310 | 181 | 126 | – | – | inactive |
| CG11906 | DRSC06096 | 94 | 97.8 | – | – | inactive |
| ssp (sunspot) | DRSC10252 | 101 | 87.3 | – | – | inactive |
| CG12861 | DRSC06201 | 104 | 162 | – | – | inactive |
| CG12861 | DRSC21960 | 99.5 | 215 | – | – | inactive |
| mod(mdg4) (modifier of mdg4) | DRSC15042 | 116 | 90.3 | – | – | inactive |
| mod(mdg4) (modifier of mdg4) | DRSC17000 | 189 | 235 | – | – | inactive |

6 consecutive reagents already listed, quoted:
| target | DRSC id | calcium signal, replicate 1 | calcium signal, replicate 2 | retest calcium signal, replicate 1 | retest calcium signal, replicate 2 | activity call |
| --- | --- | --- | --- | --- | --- | --- |
| CG32163 | DRSC09442 | 7911 | 112 | – | – | inactive |
| CG32163 | DRSC21888 | 83.1 | 149 | – | – | inactive |
| pinta | DRSC14698 | 146 | 198 | – | – | inactive |
| yellow-c + CIAPIN1 | DRSC01898 | 118 | 110 | – | – | inactive |
| Pvf1 (PDGF- and VEGF-related factor 1) | DRSC20024 | 152 | 113 | – | – | inactive |
| CG17147 | DRSC10249 | 64.5 | 121 | – | – | active |
